Experimental findings from publication PMC2629459 are described below.

Amino acid sequences for entries named in this document (tags omitted). A change or cut given only in a name is not applied to a line headed by its entry. Chains listed by the source or under a name are the forms on record and can include a tag or linker. Residues count along the entry.
UniProt P12504: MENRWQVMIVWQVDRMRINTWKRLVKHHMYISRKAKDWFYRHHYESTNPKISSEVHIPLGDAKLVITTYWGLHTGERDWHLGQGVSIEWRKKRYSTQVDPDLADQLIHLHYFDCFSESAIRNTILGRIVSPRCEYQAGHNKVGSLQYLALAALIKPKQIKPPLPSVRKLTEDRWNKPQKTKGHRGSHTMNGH
UniProt Q00987: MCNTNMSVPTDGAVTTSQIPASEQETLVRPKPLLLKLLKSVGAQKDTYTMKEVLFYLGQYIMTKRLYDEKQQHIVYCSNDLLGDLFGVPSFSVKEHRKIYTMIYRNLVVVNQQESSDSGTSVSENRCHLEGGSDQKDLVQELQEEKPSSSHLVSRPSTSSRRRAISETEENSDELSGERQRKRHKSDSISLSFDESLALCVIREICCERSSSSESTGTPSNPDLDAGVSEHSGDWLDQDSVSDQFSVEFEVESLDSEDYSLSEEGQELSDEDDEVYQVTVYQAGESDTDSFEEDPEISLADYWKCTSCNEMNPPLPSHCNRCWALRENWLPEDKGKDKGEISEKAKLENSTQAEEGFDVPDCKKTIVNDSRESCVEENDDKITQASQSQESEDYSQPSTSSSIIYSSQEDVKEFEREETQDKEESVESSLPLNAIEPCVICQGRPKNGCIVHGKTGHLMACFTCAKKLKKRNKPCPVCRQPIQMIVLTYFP
HA-tagged MDM2 mutant containing amino acids 168–411: residues 168-411 of Q00987

These are yes or no findings as the source states them, for the method shown. In cells and extracts the contact can be indirect. Some entries that bind do so weakly or less than the wild type.

One test addresses EGFP-fused Vif (HIV-1) (UniProt P12504). Put plainly: co-IP; HEK293T cotransfected with A3G, GFP-Vif and rising amounts of MDM2; immunoprecipitated with anti-GFP mAb, blotted with the indicated Abs.
In a further test the target is HA-tagged MDM2 wild type (UniProt Q00987). Put plainly: co-IP; HEK293T cotransfected with pCMV4/HA-MDM2 and pNL-A1, MG132 for 6 hrs; lysis in 25 mM HEPES pH7.4/150 mM NaCl/1 mM MgCl2/0.5% TritonX-100/10% Glycerol; immunoprecipitated with anti-MDM2 mAb and Protein A-Sepharose at 4°C, washed with RIPA buffer, blotted with anti-Vif mAb.
The target in test [1] is HA-tagged MDM2 mutant containing amino acids 168–411 (UniProt Q00987). Put plainly: co-IP; HEK293T cotransfected with HA-tagged MDM2 Wt or deletion mutants and pNL-A1, MG132 for 6 hrs; immunoprecipitated with anti-HA mAb, blotted with anti-Vif mAb.
The target in the next test is GST-Vif (HIV-1) (UniProt P12504). Put plainly: pull-down; GST pull-down with GST-Vif or GST; data not shown.

On to “HA-tagged MDM2 wild type (from UniProt Q00987 1-491) (enzyme)”, for which the binding entry in the test with EGFP-fused Vif (HIV-1) was “binds”.

With “HIV-1 Vif expressed from the subgenomic vector pNL-A1 (from UniProt P12504 1-192)”, the binding entry (in the test with HA-tagged MDM2 wild type; in test [1]) was “binds” throughout.

As to “MDM2 used in the GST pull-down assays (from UniProt Q00987 1-491) (enzyme)”, the binding entry in the test with GST-Vif (HIV-1) is “binds”.
